Test results: the supplement of paper PMC6411743
± gives the standard deviation of the averaged measurements. The entries are a selection whose mix differs from that of the whole data set.

Protein sequences, listed by entry. Tags and fused reporters are not part of them. Lines headed by an entry give the natural chain unless they say otherwise; changes in a name come on top.
UniProt Q969G6: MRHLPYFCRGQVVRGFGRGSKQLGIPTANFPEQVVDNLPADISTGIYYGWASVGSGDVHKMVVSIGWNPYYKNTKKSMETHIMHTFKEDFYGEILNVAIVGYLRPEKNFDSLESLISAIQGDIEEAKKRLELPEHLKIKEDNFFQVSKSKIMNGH
UniProt Q8TEM1: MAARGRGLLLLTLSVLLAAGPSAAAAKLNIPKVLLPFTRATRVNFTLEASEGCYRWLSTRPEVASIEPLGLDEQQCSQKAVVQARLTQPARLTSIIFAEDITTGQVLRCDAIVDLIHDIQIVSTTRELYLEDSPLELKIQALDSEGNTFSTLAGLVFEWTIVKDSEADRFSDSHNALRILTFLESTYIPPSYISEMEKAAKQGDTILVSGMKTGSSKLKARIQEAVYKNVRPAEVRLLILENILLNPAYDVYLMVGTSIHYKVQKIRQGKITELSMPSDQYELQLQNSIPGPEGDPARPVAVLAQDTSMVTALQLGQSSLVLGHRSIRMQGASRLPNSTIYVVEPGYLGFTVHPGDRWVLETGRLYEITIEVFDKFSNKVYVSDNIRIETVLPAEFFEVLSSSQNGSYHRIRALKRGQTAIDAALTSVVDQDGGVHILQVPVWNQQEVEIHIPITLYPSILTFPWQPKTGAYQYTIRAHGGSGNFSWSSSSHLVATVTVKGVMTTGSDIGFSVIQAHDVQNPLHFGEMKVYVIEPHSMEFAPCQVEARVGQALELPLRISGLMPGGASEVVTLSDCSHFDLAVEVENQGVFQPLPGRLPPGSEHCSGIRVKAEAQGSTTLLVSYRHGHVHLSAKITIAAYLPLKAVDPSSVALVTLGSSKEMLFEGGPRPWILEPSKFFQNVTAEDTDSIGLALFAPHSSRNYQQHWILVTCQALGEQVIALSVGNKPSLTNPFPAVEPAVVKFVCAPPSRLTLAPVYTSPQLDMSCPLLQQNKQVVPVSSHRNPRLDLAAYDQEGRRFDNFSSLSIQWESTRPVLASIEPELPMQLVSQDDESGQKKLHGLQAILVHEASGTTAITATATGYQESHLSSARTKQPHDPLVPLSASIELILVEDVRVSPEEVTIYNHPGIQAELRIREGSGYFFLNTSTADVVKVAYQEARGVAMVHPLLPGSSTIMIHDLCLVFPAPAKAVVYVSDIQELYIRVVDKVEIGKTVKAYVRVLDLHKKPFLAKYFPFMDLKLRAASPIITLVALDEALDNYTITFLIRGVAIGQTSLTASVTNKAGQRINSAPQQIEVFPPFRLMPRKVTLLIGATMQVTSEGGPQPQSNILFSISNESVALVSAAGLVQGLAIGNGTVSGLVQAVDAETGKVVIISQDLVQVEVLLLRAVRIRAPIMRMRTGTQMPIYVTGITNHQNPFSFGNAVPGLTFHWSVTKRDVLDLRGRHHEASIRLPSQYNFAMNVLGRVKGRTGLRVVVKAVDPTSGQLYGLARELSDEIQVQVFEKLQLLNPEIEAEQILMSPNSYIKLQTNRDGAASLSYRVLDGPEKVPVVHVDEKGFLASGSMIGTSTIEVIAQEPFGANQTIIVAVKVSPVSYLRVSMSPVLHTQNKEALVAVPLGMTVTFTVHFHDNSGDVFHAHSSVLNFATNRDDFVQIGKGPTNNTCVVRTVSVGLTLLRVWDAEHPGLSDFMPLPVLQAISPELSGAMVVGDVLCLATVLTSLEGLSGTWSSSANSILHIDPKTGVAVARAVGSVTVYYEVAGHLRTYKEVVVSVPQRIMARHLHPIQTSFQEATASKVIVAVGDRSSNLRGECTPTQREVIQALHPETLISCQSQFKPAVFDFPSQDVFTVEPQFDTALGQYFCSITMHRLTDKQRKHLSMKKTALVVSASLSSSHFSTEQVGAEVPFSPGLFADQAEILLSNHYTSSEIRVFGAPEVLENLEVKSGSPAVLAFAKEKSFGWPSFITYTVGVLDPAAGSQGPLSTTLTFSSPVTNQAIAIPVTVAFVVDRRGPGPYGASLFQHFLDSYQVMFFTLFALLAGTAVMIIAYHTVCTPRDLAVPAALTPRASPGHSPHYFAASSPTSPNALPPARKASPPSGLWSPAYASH
UniProt Q92734, whole entry: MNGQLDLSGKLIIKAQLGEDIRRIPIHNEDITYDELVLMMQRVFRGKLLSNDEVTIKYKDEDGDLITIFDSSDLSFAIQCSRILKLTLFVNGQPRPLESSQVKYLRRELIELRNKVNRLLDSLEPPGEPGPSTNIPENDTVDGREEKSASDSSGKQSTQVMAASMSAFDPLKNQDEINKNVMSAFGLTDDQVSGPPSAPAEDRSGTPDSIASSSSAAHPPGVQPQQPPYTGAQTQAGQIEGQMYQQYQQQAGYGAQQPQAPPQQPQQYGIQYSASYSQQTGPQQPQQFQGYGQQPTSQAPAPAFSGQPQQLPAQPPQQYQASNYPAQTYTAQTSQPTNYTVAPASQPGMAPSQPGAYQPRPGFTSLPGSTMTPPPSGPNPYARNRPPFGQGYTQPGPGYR
UniProt Q8WVM8, whole entry, looked up: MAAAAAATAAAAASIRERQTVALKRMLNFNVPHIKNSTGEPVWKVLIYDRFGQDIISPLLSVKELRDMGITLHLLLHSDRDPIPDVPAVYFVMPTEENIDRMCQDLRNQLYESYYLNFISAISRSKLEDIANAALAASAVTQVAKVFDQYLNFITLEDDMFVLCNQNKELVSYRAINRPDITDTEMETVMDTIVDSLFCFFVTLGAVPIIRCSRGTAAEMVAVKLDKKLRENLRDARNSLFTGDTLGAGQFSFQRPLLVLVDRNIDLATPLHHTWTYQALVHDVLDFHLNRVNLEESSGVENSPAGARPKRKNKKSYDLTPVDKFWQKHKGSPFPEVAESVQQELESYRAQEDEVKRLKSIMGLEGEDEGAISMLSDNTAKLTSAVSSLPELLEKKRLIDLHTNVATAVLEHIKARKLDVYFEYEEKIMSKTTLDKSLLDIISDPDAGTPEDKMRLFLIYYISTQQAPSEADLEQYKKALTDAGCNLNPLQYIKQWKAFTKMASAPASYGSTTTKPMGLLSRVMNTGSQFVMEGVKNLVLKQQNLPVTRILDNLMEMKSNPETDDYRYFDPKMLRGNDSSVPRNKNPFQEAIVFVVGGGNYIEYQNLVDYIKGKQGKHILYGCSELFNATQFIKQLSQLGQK
UniProt Q969F1: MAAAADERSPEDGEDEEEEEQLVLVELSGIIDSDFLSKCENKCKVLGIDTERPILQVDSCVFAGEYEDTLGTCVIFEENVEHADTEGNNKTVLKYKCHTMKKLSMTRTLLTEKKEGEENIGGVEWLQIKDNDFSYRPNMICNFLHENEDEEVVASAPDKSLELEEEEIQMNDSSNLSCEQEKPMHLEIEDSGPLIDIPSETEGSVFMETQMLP
UniProt Q92990: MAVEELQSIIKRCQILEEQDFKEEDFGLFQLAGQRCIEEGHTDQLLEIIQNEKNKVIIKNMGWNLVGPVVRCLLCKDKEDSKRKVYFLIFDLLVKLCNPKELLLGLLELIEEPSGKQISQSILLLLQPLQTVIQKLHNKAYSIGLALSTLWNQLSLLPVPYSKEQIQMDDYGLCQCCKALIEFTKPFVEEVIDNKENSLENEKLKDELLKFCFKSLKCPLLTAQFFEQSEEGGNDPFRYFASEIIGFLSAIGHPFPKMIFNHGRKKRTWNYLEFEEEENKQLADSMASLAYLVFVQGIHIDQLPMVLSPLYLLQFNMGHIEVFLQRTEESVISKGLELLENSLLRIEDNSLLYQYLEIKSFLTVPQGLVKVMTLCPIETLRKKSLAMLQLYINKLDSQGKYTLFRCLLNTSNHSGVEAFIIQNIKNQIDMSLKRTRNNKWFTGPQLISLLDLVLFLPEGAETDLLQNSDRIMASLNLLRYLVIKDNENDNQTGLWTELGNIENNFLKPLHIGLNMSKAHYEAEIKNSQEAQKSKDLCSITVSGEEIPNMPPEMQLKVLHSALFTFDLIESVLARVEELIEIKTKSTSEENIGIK
UniProt Q96A49: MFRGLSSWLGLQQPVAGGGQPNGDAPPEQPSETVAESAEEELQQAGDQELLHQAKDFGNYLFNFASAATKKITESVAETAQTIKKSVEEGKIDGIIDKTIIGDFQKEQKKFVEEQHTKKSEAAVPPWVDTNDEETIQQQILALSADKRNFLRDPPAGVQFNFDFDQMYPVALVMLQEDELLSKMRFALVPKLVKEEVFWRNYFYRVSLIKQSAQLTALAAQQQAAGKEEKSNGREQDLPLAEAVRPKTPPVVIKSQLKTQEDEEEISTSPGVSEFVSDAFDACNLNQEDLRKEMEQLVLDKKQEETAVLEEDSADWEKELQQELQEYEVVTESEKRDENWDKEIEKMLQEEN
UniProt Q92871: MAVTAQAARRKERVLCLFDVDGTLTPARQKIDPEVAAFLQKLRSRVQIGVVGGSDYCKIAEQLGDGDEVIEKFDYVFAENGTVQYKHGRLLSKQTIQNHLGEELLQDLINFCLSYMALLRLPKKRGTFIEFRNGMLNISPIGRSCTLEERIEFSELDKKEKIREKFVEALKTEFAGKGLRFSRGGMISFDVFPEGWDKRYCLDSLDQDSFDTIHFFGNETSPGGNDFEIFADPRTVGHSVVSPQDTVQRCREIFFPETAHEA
UniProt Q8TBM8: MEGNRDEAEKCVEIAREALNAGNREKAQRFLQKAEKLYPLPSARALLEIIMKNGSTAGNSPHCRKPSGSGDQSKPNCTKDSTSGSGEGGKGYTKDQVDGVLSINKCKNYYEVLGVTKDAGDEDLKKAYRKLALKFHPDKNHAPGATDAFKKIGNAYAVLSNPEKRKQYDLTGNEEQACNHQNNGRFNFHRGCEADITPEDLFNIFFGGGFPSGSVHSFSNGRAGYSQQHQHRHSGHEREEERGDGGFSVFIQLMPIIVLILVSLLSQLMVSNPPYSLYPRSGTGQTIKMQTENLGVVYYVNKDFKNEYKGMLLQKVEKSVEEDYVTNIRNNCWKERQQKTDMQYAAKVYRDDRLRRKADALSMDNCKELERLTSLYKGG
UniProt Q92766: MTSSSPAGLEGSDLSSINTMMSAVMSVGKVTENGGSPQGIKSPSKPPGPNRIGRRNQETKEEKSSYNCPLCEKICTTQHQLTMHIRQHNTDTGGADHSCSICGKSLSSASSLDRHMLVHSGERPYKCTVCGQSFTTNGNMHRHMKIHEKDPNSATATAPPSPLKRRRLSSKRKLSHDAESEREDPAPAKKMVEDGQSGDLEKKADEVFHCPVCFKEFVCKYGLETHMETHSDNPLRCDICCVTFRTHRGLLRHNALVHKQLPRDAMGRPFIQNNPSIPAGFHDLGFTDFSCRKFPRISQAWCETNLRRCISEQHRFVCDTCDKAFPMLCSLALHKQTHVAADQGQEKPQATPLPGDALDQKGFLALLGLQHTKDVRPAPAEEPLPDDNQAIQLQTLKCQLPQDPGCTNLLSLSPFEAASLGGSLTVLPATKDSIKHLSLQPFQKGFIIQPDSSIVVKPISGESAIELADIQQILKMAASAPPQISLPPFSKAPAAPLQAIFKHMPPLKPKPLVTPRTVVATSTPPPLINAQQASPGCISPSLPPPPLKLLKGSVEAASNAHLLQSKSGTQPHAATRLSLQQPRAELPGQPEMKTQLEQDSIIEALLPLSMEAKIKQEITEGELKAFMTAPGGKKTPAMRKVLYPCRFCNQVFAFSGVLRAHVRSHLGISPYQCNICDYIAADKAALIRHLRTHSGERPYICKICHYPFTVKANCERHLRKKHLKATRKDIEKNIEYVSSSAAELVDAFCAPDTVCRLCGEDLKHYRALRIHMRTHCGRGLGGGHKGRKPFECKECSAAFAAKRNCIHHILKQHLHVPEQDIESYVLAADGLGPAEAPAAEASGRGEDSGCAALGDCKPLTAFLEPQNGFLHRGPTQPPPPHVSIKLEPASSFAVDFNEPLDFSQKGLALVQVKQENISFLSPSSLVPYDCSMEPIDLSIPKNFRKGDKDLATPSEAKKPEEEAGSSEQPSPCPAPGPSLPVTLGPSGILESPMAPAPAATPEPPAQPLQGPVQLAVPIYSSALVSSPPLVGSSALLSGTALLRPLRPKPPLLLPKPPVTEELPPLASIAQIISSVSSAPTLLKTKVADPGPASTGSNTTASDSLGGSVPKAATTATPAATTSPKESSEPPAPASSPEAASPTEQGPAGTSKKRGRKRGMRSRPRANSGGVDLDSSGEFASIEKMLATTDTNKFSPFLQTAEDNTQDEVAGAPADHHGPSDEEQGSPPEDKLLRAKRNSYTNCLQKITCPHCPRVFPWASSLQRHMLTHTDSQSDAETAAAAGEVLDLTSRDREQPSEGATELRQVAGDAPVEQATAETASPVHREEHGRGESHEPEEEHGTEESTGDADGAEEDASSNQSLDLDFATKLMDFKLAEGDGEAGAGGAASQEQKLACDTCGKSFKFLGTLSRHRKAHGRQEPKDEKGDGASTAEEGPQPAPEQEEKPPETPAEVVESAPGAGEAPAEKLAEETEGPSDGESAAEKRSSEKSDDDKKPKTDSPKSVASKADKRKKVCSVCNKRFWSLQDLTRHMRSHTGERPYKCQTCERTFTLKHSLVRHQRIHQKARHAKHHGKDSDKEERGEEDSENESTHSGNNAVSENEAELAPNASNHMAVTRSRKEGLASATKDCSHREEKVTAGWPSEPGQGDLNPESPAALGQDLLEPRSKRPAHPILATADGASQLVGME

Compound: Nc1ncnc2c1ncn2[C@@H]1O[C@H](COP(=O)(O)OP(=O)(O)OP(=O)(O)O)[C@@H](O)[C@H]1O [adenosine triphosphate]
Assay: NP40-soluble protein abundance relative to vehicle (solubility fold change) (ratio); higher = more soluble protein in presence of ATP
Outline: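 Jurkat crude lysate (Dounce-homogenised) was treated with eight concentrations from 0.1 to 10 mM for 10 min at room temperature, then 3 min at 37 °C. It was solubilised with 0.8% NP40 and benzonase (60 min, 4 °C) and ultracentrifuged, and the supernatant was TMT-labelled for LC-MS/MS. Intensities were vsn-normalised, and the value is the fold change against the NP40-processed vehicle per replicate, from three independent experiments.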

Target | NP40-soluble protein abundance (concentration: 1mM) | NP40-soluble protein abundance (concentration: 2mM) | NP40-soluble protein abundance (concentration: 4mM) | NP40-soluble protein abundance (concentration: 6mM) | NP40-soluble protein abundance (concentration: 8mM) | NP40-soluble protein abundance (concentration: 10mM)
RFK (UniProt Q969G6) | 0.998 ± 0.054 | 0.966 ± 0.074 | 0.944 ± 0.057 | 0.974 ± 0.074 | 0.947 ± 0.079 | 0.905 ± 0.043
COPS5 (UniProt Q92905) | 0.995 ± 0.053 | 1.01 ± 0.02 | 0.967 ± 0.024 | 0.962 ± 0.037 | 0.949 ± 0.012 | 0.98 ± 0.028
UniProt Q92552 and related entries | 0.985 ± 0.052 | 0.939 ± 0.054 | 0.876 ± 0.057 | 0.909 ± 0.15 | 0.872 ± 0.11 | 0.851 ± 0.096
UniProt Q92622 and related entries | 0.936 ± 0.078 | 0.932 ± 0.06 | 0.953 ± 0.081 | 0.935 ± 0.083 | 0.917 ± 0.079 | 0.924 ± 0.042
TFB1M (UniProt Q8WVM0) | 1.04 ± 0.13 | 1.06 ± 0.083 | 1.09 ± 0.031 | 1.11 ± 0.074 | 1.19 ± 0.051 | 1.28 ± 0.045
NUP210 (UniProt Q8TEM1) | 1.02 ± 0.039 | 1.02 ± 0.029 | 0.993 ± 0.015 | 0.9978 ± 0.0014 | 1.02 ± 0.011 | 1.05 ± 0.022
UniProt Q8WWK9 and related entries | 0.98 ± 0.028 | 0.9894 ± 0.00078 | 1.03 ± 0.029 | 1.08 ± 0.044 | 1.04 ± 0.032 | 1.09 ± 0.025
SETD7 (UniProt Q8WTS6) | 0.989 ± 0.011 | 0.9963 ± 0.0082 | 0.946 ± 0.033 | 0.952 ± 0.011 | 0.925 ± 0.034 | 0.945 ± 0.035
UniProt Q8TCT9 and related entries | 0.956 ± 0.066 | 0.988 ± 0.03 | 0.951 ± 0.05 | 0.918 ± 0.07 | 0.93 ± 0.031 | 0.934 ± 0.049
UniProt Q8TE04 and related entries | 0.996 ± 0.023 | 1.01 ± 0.022 | 1.072 ± 0.0054 | 1.07 ± 0.1 | 1.08 ± 0.094 | 1.05 ± 0.05
CUL5 (UniProt Q93034) | 1.05 ± 0.1 | 1.01 ± 0.09 | 1.01 ± 0.076 | 0.933 ± 0.1 | 1.02 ± 0.023 | 0.991 ± 0.067
EXOSC8 (UniProt Q96B26) | 1.051 ± 0.0096 | 1.09 ± 0.032 | 1.099 ± 0.0098 | 1.18 ± 0.019 | 1.19 ± 0.035 | 1.24 ± 0.078
KIAA1143 (UniProt Q96AT1) | 0.831 ± 0.1 | 0.903 ± 0.13 | 0.836 ± 0.12 | 0.923 ± 0.12 | 0.808 ± 0.083 | 0.822 ± 0.12
UniProt Q8WVT3 | 0.959 ± 0.055 | 0.9128 ± 0.0091 | 0.908 ± 0.018 | 0.926 ± 0.016 | 0.888 ± 0.032 | 0.908 ± 0.018
UniProt Q92734 and related entries | 0.879 ± 0.04 | 0.907 ± 0.04 | 0.876 ± 0.058 | 0.909 ± 0.062 | 0.854 ± 0.045 | 0.878 ± 0.013
SCFD1 (UniProt Q8WVM8) | 1 ± 0.019 | 1.01 ± 0.044 | 0.997 ± 0.036 | 0.98 ± 0.044 | 0.975 ± 0.029 | 0.994 ± 0.039
GTF3C6 (UniProt Q969F1) | 1.03 ± 0.044 | 1.02 ± 0.02 | 1.03 ± 0.039 | 1.02 ± 0.067 | 1.02 ± 0.021 | 1.02 ± 0.034
GATAD2B (UniProt Q8WXI9) | 1.01 ± 0.072 | 0.997 ± 0.073 | 1.02 ± 0.081 | 1.02 ± 0.13 | 1.02 ± 0.07 | 1.02 ± 0.076
UniProt Q92859 and related entries | 0.976 ± 0.057 | 0.981 ± 0.038 | 0.9896 ± 0.0073 | 1.02 ± 0.04 | 0.958 ± 0.08 | 0.966 ± 0.046
NUP133 (UniProt Q8WUM0) | 1.12 ± 0.061 | 1.09 ± 0.048 | 1.09 ± 0.056 | 1.08 ± 0.03 | 1.14 ± 0.029 | 1.15 ± 0.055
GLMN (UniProt Q92990) | 1.04 ± 0.057 | 1.02 ± 0.037 | 0.98 ± 0.074 | 0.994 ± 0.062 | 1.01 ± 0.046 | 0.926 ± 0.055
TMEM263 (UniProt Q8WUH6) | 0.953 ± 0.1 | 0.993 ± 0.061 | 1.01 ± 0.066 | 0.971 ± 0.12 | 0.931 ± 0.03 | 0.988 ± 0.075
LEO1 (UniProt Q8WVC0) | 0.992 ± 0.056 | 0.979 ± 0.029 | 0.935 ± 0.027 | 0.854 ± 0.019 | 0.674 ± 0.062 | 0.563 ± 0.043
SYAP1 (UniProt Q96A49) | 0.961 ± 0.056 | 0.944 ± 0.048 | 0.925 ± 0.044 | 0.957 ± 0.037 | 0.912 ± 0.015 | 0.903 ± 0.045
RFT1 (UniProt Q96AA3) | 0.896 ± 0.091 | 0.93 ± 0.099 | 0.915 ± 0.024 | 0.788 ± 0.1 | 0.908 ± 0.012 | 0.932 ± 0.069
UniProt Q93074 and related entries | 1.04 ± 0.022 | 1.01 ± 0.016 | 1.06 ± 0.04 | 1.05 ± 0.11 | 1.05 ± 0.056 | 1.04 ± 0.055
PMM1 (UniProt Q92871) | 0.999 ± 0.034 | 0.972 ± 0.065 | 0.972 ± 0.029 | 0.976 ± 0.11 | 0.992 ± 0.024 | 0.956 ± 0.019
DNAJB14 (UniProt Q8TBM8) | 0.907 ± 0.031 | 0.914 ± 0.038 | 0.912 ± 0.026 | 0.958 ± 0.073 | 0.923 ± 0.033 | 0.94 ± 0.044
GPKOW (UniProt Q92917) | 1.05 ± 0.06 | 1.03 ± 0.041 | 1.02 ± 0.04 | 1.08 ± 0.026 | 1.02 ± 0.026 | 1.01 ± 0.033
UniProt Q92766 and related entries | 1.07 ± 0.044 | 1.07 ± 0.043 | 1.09 ± 0.034 | 1.16 ± 0.055 | 1.09 ± 0.054 | 1.15 ± 0.075

Quoted from the listing (2 entries):
Target | NP40-soluble protein abundance (concentration: 1mM) | NP40-soluble protein abundance (concentration: 2mM) | NP40-soluble protein abundance (concentration: 4mM) | NP40-soluble protein abundance (concentration: 6mM) | NP40-soluble protein abundance (concentration: 8mM) | NP40-soluble protein abundance (concentration: 10mM)
UniProt Q8TCT9 and related entries | 0.956 ± 0.066 | 0.988 ± 0.03 | 0.951 ± 0.05 | 0.918 ± 0.07 | 0.93 ± 0.031 | 0.934 ± 0.049
UniProt Q8TE04 and related entries | 0.996 ± 0.023 | 1.01 ± 0.022 | 1.072 ± 0.0054 | 1.07 ± 0.1 | 1.08 ± 0.094 | 1.05 ± 0.05
